Like-named read-outs stand apart in the source and are kept apart here. At least one peptide structure holds a part that was inferred or is arguable (an end, a ring closure or a residue).
Legend:
[1] = test system: streptozotocin-diabetic rats; assay: Liver glycogen in insulin-treated streptozotocin diabetic rats with daily amylin replacement; format: in vivo; details: insulin-treated STZ diabetic rats; for liver glycogen concentration versus normal animals: P<0.3
[2] = test system: rat soleus muscle; format: cell-based; details: amylin dose response
Procedure: Male Harlan Sprague Dawley rats of approximately 200 g mass were used in order to maintain soleus muscle mass less than 40 mg. The animals were fasted for 4 hours prior to sacrifice by decapitation. The skin was stripped from the lower limb which was then pinned out on cork board. The tendo achilles was cut just above os […]. gastrocnemius reflected out from the posterior aspect of the tibia. M. soleus, a small 15-20 mm long, 0.5 mm thick flat muscle on the bone surface of m. gastrocnemius was then stripped clear and the perimysium cleaned off using fine scissors and forceps. M. soleus was then split into equal parts using a blade passed antero-posteriorly through the belly of the muscle to obtain a total of 4 muscle strips from each animal. After dissecting the muscle from the animal, it was kept for a short period in physiological saline. The muscle was not held under tension, as reported in other methodologies since in our hands this had no demonstrable effect on the insulin-sensitivity of radioglucose incorporation into glycogen. Muscles were added to 50 mL Erlenmeyer flasks containing 10 mL of a pregassed Krebs-Ringer bicarbonate buffer containing (mM) NaCl 118.5; KCl 5.94; CaCl2 2.54; MgSO4 1.19; KH2PO4 1.19; NaHCO3 25; glucose 5.5; and recombinant human insulin (Humulin-R, Eli Lilly, IN) and either synthetic rat (Bachem, Torrance, CA. Lot# ZG485) or synthetic human amylin (Bachem, Torrance, CA. Lot# ZH144) as detailed below. Methods used to determine the nature and purity of rat and human amylin included quantitative amino acid analysis, gas phase amino acid sequencing, reverse phase HPLC and fast-atom-bombardment mass spectrometry. By the latter two methods, purity was 98.4 and 97.9% respectively. […] Incorporation of mercury into rat amylin may be a feature of many commercially available batches that have already been used in published studies. Since the peptide was bicactive, its action in muscle was expected to at least qualitatively mimic that of true rat amylin. The mercuric method of cyclization was not used in the synthesis of human amylin, which is found by electrospray ionization mass spectrometry and atomic absorption spectroscopy to be mercury-free. Muscles were assigned to different flasks so that the four muscle pieces from each animal were evenly distributed among the different assay conditions. The incubation media were gassed by gently blowing carbogen (95% O2, 5% CO2) over the surface while it was continuously agitated at 37°C in an oscillating water bath. pH of gassed media at 37°C was verified as being between 7.1 and 7.4. After a half-hour preincubation, 0.5 μCi of [U-^14C]-glucose was added to each flask for a further 60 minutes. Each muscle piece was then rapidly removed, trimmed of tendons, blotted, frozen in liquid N2, weighed and then stored at 20°C for subsequent determination of ^14C-glycogen. The incubation medium was also frozen for subsequent analysis. The concentration of human amylin present in the medium at the end of the incubation was determined by radioimmunoassay in surfactant-containing buffer. For both human and rat amylin, the actual mass added to the incubation medium was determined by quantitative amino-acid analysis. Each frozen muscle specimen was placed in a vial with 1 mL 60% potassium hydroxide (wt/vol) and digested at 70°C for 45 minutes under intermittent vigorous agitation. Dissolved glycogen was precipitated onto the walls of the vial by addition of 3 mL absolute ethanol and overnight cooling at -20°C. After centrifugation for 30 minutes at 2000 x g, the supernatant was gently aspirated, the glycogen was again washed with ethanol and centrifuged, the ethanol aspirated and the precipitate dried under vacuum. It was important to evaporate all ethanol to avoid quenching during scintillation counting. The remaining glycogen was redissolved in 1 mL water and 4 mL scintillation fluid and counted for ^14C. […]

CC(C)C[C@H](NC(=O)[C@H](CC(N)=O)NC(=O)[C@H](CC(N)=O)NC(=O)[C@H](CO)NC(=O)[C@H](CO)NC(=O)[C@H](CCCNC(=N)N)NC(=O)[C@@H](NC(=O)[C@H](CC(C)C)NC(=O)[C@H](Cc1ccccc1)NC(=O)[C@H](CC(N)=O)NC(=O)[C@H](C)NC(=O)[C@H](CC(C)C)NC(=O)[C@H](CCCNC(=N)N)NC(=O)[C@H](CCC(N)=O)NC(=O)[C@@H](NC(=O)[C@H](C)NC(=O)[C@@H]1CSSC[C@H](NC(=O)[C@@H](N)CCCCN)C(=O)N[C@@H](CC(N)=O)C(=O)N[C@@H]([C@@H](C)O)C(=O)N[C@@H](C)C(=O)N[C@@H]([C@@H](C)O)C(=O)N1)[C@@H](C)O)C(C)C)C(=O)NCC(=O)N1CCC[C@H]1C(=O)N[C@H](C(=O)N[C@@H](CC(C)C)C(=O)N1CCC[C@H]1C(=O)N1CCC[C@H]1C(=O)N[C@H](C(=O)N[C@@H](CC(N)=O)C(=O)N[C@H](C(=O)NCC(=O)N[C@@H](CO)C(=O)N[C@@H](CC(N)=O)C(=O)N[C@H](C(=O)N[C@@H](Cc1ccc(O)cc1)C(N)=O)[C@@H](C)O)C(C)C)[C@@H](C)O)C(C)C [rat amylin]
liver glycogen versus insulin alone ([1]; amylin 3µg/day s.c., 5 days): did not measurably increase glycogen levels | liver glycogen concentration versus normal animals ([1]; amylin 10µg per day): not significantly different | liver glycogen versus insulin-only therapy ([1]; amylin 10µg/day s.c., 5 days, amylin:insulin ratio 0.22, P<0.05): Significant increases | liver glycogen concentration versus normal animals ([1]; amylin 30µg per day): not significantly different | liver glycogen versus insulin-only therapy ([1]; amylin 30µg/day s.c., 5 days, amylin:insulin ratio 0.75, P<0.02): Significant increases | liver glycogen concentration versus normal animals ([1]; amylin 100µg per day): not significantly different | liver glycogen versus insulin-only therapy ([1]; amylin 100µg/day s.c., 5 days, amylin:insulin ratio 2.79, P<0.01): Significant increases | liver glycogen versus insulin alone / normal ([1]; amylin 300µg/day s.c., 5 days): did not measurably restore liver glycogen towards normal | Maximal response Mean ± SEM ([2]; [insulin] 0 nM (nominal)): 0.85 ± 0.17 µmol/g wet tissue/hr | Maximal response Mean ± SEM ([2]; [insulin] 0.21 nM (nominal)): 1.26 ± 0.18 µmol/g wet tissue/hr | Maximal response Mean ± SEM ([2]; [insulin] 0.71 nM (nominal)): 2.11 ± 0.18 µmol/g wet tissue/hr | Maximal response Mean ± SEM ([2]; [insulin] 2.1 nM (nominal)): 2.94 ± 0.18 µmol/g wet tissue/hr | Maximal response Mean ± SEM ([2]; [insulin] 7.1 nM (nominal)): 3.56 ± 0.19 µmol/g wet tissue/hr | Maximal response Mean ± SEM ([2]; [insulin] 71 nM (nominal)): 4.07 ± 0.18 µmol/g wet tissue/hr

— EP0586592B1, “INSULIN AND AMYLIN CONTAINING COMPOSITION FOR THE TREATMENT OF INSULIN DEFICIENT MAMMALS” (AMYLIN PHARMACEUTICALS, INC., priority 1991, dated 2000)
